For this experiment, the target named is GST-ΔPDZ18E6 (HPV-18) (UniProt P06463). Put plainly: pull-down; GST-wt18E6 or GST-ΔPDZ18E6 incubated with extracts of HEK293 cells transfected with HA-tagged Dlg, alone or with Myc-tagged SGEF; western blot with anti-HA and anti-Myc; only the target purified. (In general: In western blotting, separated proteins are transferred to a membrane and probed.)

Results are given in words; binding and its absence hold for the method and conditions named. Binding seen in cells or lysates may run through a third protein. Sequences can lack the tags named with a protein.

B1: Myc-tagged wtSGEF (protein, UniProt Q96DR7 1-871)
chain: MDGESEVDFSSNSITPLWRRRSIPQPHQVLGRSKPRPQSYQSPNGLLITDFPVEDGGTLLAAQIPAQVPTASDSRTVHRSPLLLGAQRRAVANGGTASPEYRAASPRLRRPKSPKLPKAVPGGSPKSPANGAVTLPAPPPPPVLRPPRTPNAPAPCTPEEDLTGLTASPVPSPTANGLAANNDSPGSGSQSGRKAKDPERGLFPGPQKSSSEQKLPLQRLPSQENELLENPSVVLSTNSPAALKVGKQQIIPKSLASEIKISKSNNQNVEPHKRLLKVRSMVEGLGGPLGHAGEESEVDNDVDSPGSLRRGLRSTSYRRAVVSGFDFDSPTSSKKKNRMSQPVLKVVMEDKEKFSSLGRIKKKMLKGQGTFDGEENAVLYQNYKEKALDIDSDEESEPKEQKSDEKIVIHHKPLRSTWSQLSAVKRKGLSQTVSQEERKRQEAIFEVISSEHSYLLSLEILIRMFKNSKELSDTMTKTERHHLFSNITDVCEASKKFFIELEARHQNNIFIDDISDIVEKHTASTFDPYVKYCTNEVYQQRTLQKLLATNPSFKEVLSRIESHEDCRNLPMISFLILPMQRVTRLPLLMDTICQKTPKDSPKYEVCKRALKEVSKLVRLCNEGARKMERTEMMYTINSQLEFKIKPFPLVSSSRWLVKRGELTAYVEDTVLFSRRTSKQQVYFFLFNDVLIITKKKSEESYNVNDYSLRDQLLVESCDNEELNSSPGKNSSTMLYSRQSSASHLFTLTVLSNHANEKVEMLLGAETQSERARWITALGHSSGKPPADRTSLTQVEIVRSFTAKQPDELSLQVADVVLIYQRVSDGWYEGERLRDGERGWFPMECAKEITCQATIDKNVERMGRLLGLETNV
B1: the binding result is reported as “no binding”.
